Assay results from US8846681B2, “Pyrimidyl cyclopentanes as AKT protein kinase inhibitors” (Array BioPharma, Inc., priority 2006, dated 2014).
Counter-ions that a name gives are not always drawn. Some results were stated once for a whole list of compounds, not compound by compound.

The chains behind the UniProt entries cited, without tags or fusion partners. Where a name states a change or a piece, a line headed by the entry shows the natural chain unless it says otherwise.
UniProt P31749: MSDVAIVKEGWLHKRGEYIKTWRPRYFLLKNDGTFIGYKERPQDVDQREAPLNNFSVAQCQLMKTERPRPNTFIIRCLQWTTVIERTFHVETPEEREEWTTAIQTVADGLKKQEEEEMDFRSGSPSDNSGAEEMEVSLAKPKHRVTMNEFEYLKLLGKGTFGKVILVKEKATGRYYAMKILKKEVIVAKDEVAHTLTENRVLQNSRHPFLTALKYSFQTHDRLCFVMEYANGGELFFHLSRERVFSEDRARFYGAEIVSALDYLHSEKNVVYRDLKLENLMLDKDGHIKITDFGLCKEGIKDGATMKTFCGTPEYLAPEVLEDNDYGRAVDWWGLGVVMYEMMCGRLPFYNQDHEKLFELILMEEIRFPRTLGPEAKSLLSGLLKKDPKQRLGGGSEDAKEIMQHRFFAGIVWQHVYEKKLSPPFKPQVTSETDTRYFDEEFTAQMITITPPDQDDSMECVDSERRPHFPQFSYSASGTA

molecular target: full-length human recombinant active AKT-1 (Homo sapiens, UniProt P31749); experiment: AKT-1 Kinase Assay (IMAP fluorescence polarization); format: biochemical; settings: phosphorylation of fluorescently-labeled peptide (Crosstide), IMAP kit

Compound | IC50
C[C@@H]1CCc2ncnc(N3CCN(C(=O)[C@H](N)Cc4ccc(Br)cc4)C[C@@H]3C)c21 [Example 78, (R)-2-amino-3-(4-bromophenyl)-1-((S)-3-methyl-4-((R)-5-methyl-6,7-dihydro-5H-cyclopenta[d]pyrimidin-4-yl)piperazin-1-yl)propan-1-one] | < 10 µM
CC(=O)N1CCN(C[C@H](C(=O)N2CCN(c3ncnc4c3[C@H](C)C[C@@H]4F)CC2)c2ccc(Cl)cc2)CC1 [Example 107, (R)-3-(4-acetylpiperazin-1-yl)-2-(4-chlorophenyl)-1-(4-((5R,7S)-7-fluoro-5-methyl-6,7-dihydro-5H-cyclopenta[d]pyrimidin-4-yl)piperazin-1-yl)propan-1-one] | < 10 µM
C[C@@H]1C[C@H](F)c2ncnc(N3CCN(C(=O)[C@H](CN4CCN(CCO)CC4)c4ccc(Cl)cc4)CC3)c21 [Example 109, (S)-2-(4-chlorophenyl)-1-(4-((5R,7S)-7-fluoro-5-methyl-6,7-dihydro-5H-cyclopenta[d]pyrimidin-4-yl)piperazin-1-yl)-3-(4-(2-hydroxyethyl)piperazin-1-yl)propan-1-one] | < 10 µM
C[C@@H]1CCc2ncnc(N3CCN(C(=O)[C@H](CN)c4ccc(Cl)cc4)CC3)c21 [Example 34, (S)-3-amino-2-(4-chlorophenyl)-1-(4-((R)-5-methyl-6,7-dihydro-5H-cyclopenta[d]pyrimidin-4-yl)piperazin-1-yl)-propan-1-one dihydrochloride] | < 10 µM
C[C@@H]1CCc2ncnc(N3CCN(C(=O)C(CN)Cc4ccc(Cl)c(F)c4)C[C@@H]3C)c21 (stereo partly drawn) [Example 4, 2-(aminomethyl)-3-(4-chloro-3-fluorophenyl)-1-((S)-3-methyl-4-((R)-5-methyl-6,7-dihydro-5H-cyclopenta[d]pyrimidin-4-yl)piperazin-1-yl)propan-1-one dihydrochloride] | < 10 µM
C[C@@H]1CCc2ncnc(N3CCN(C(=O)[C@H](N)Cc4c[nH]c5ccccc45)CC3)c21 [Example 159, (R)-2-amino-3-(1H-indol-3-yl)-1-(4-((R)-5-methyl-6,7-dihydro-5H-cyclopenta[d]pyrimidin-4-yl)piperazin-1-yl)propan-1-one] | < 10 µM
C[C@@H]1C[C@H](F)c2ncnc(N3CCN(C(=O)[C@H](CC(C)(C)N)c4ccc(Cl)cc4)CC3)c21 [Example 112, (R)-4-amino-2-(4-chlorophenyl)-1-(4-((5R,7S)-7-fluoro-5-methyl-6,7-dihydro-5H-cyclopenta[d]pyrimidin-4-yl)piperazin-1-yl)-4-methylpentan-1-one] | < 10 µM
CCN1CCN(C[C@@H](C(=O)N2CCN(c3ncnc4c3[C@H](C)C[C@H]4F)CC2)c2ccc(Cl)cc2)CC1 [Example 119, (S)-2-(4-chlorophenyl)-3-(4-ethylpiperazin-1-yl)-1-(4-((5R,7R)-7-fluoro-5-methyl-6,7-dihydro-5H-cyclopenta[d]pyrimidin-4-yl)piperazin-1-yl)propan-1-one] | < 10 µM
C[C@@H]1CCc2ncnc(N3CCN(C(=O)[C@H](N)Cc4ccc(Cl)c(Cl)c4)CC3)c21 [Example 63, (R)-2-amino-3-(3,4-dichlorophenyl)-1-(4-((R)-5-methyl-6,7-dihydro-5H-cyclopenta[d]pyrimidin-4-yl)piperazin-1-yl)propan-1-one] | < 10 µM
C[C@@H]1CCc2ncnc(N3CCN(C(=O)C(CN4CCCC4)c4ccc(Cl)cc4)CC3)c21 (stereo partly drawn) [Example 10, (R,S)-2-(4-chlorophenyl)-1-(4-(R)-5-methyl-6,7-dihydro-5H-cyclopenta[d]pyrimidin-4-yl)piperazin-1-yl)-3-(pyrrolidin-1-yl)propan-1-one dihydrochloride] | < 10 µM
C[C@@H]1CCc2ncnc(N3CCN(C(=O)[C@H](N)Cc4ccc([N+](=O)[O-])cc4)CC3)c21 [Example 74, (R)-2-amino-1-(4-((R)-5-methyl-6,7-dihydro-5H-cyclopenta[d]pyrimidin-4-yl)piperazin-1-yl)-3-(4-nitrophenyl)propan-1-one] | < 10 µM
CC(C)NCC(C(=O)N1CCN(c2ncnc3c2[C@H](C)CC3)CC1)c1ccc(Cl)cc1Cl (stereo partly drawn) [Example 5, (R,S)-2-(2,4-dichlorophenyl)-3-(isopropylamino)-1-(4-((R)-5-methyl-6,7-dihydro-5H-cyclopenta[d]pyrimidin-4-yl)piperazin-1-yl)propan-1-one dihydrochloride] | < 10 µM
CC(C)NCC(O)(C(=O)N1CCN(c2ncnc3c2[C@H](C)CC3)CC1)c1ccc(Cl)cc1 (stereo partly drawn) [Example 13, (R,S) 2-(4-chlorophenyl)-2-hydroxy-3-(isopropylamino)-1-(4-((R)-5-methyl-6,7-dihydro-5H-cyclopenta[d]pyrimidin-4-yl)piperazin-1-yl)propan-1-one dihydrochloride] | < 10 µM
C[C@@H]1C[C@@H](F)c2ncnc(N3CCN(C(=O)[C@H](CN4CCN(CCO)CC4)c4ccc(Cl)cc4)CC3)c21 [Example 108, (S)-2-(4-chlorophenyl)-1-(4-((5R,7R)-7-fluoro-5-methyl-6,7-dihydro-5H-cyclopenta[d]pyrimidin-4-yl)piperazin-1-yl)-3-(4-(2-hydroxyethyl)piperazin-1-yl)propan-1-one] | < 10 µM
C[C@@H]1C[C@@H](F)c2ncnc(N3CCN(C(=O)[C@H](CC(C)(C)N)c4ccc(Cl)cc4)CC3)c21 [Example 98, (R)-4-amino-2-(4-chlorophenyl)-1-(4-((5R,7R)-7-fluoro-5-methyl-6,7-dihydro-5H-cyclopenta[d]pyrimidin-4-yl)piperazin-1-yl)-4-methylpentan-1-one] | < 10 µM
C[C@@H]1C[C@@H](F)c2ncnc(N3CCN(C(=O)[C@@H](CN4CCC(O)CC4)c4ccc(Cl)c(Cl)c4)CC3)c21 [Example 137, (R)-2-(3,4-dichlorophenyl)-1-(4-((5R,7R)-7-fluoro-5-methyl-6,7-dihydro-5H-cyclopenta[d]pyrimidin-4-yl)piperazin-1-yl)-3-(4-hydroxypiperidin-1-yl)propan-1-one] | < 10 µM
C[C@@H]1CCc2ncnc(N3CCN(C(=O)[C@H](N)Cc4ccc(C#N)cc4)CC3)c21 [Example 61, 4-((R)-2-amino-3-(4-((R)-5-methyl-6,7-dihydro-5H-cyclopenta[d]pyrimidin-4-yl)piperazin-1-yl)-3-oxopropyl)benzonitrile] | < 10 µM
C[C@@H]1C[C@@H](F)c2ncnc(N3CCN(C(=O)[C@H](CN[C@@H]4CCOC4)c4ccc(Cl)cc4)CC3)c21 [Example 100, (S)-2-(4-chlorophenyl)-1-(4-((5R,7R)-7-fluoro-5-methyl-6,7-dihydro-5H-cyclopenta[d]pyrimidin-4-yl)piperazin-1-yl)-3-((R)-tetrahydrofuran-3-ylamino)propan-1-one] | < 10 µM
C[C@@H]1CCc2ncnc(N3CCN(C(=O)C(CNCc4cccnc4)c4ccc(Cl)cc4)CC3)c21 (stereo partly drawn) [Example 11, (R,S)-2-(4-chlorophenyl)-1-(4-((R)-5-methyl-6,7-dihydro-5H-cyclopenta[d]pyrimidin-4-yl)piperazin-1-yl)-3-(pyridin-3-ylmethylamino)propan-1-one trihydrochloride] | < 10 µM
C[C@@H]1C[C@H](F)c2ncnc(N3CCN(C(=O)[C@H](CNC=O)c4ccc(Br)cc4)CC3)c21 [Example 154, N-((S)-2-(4-bromophenyl)-3-(4-((5R,7S)-7-fluoro-5-methyl-6,7-dihydro-5H-cyclopenta[d]pyrimidin-4-yl)piperazin-1-yl)-3-oxopropyl)formamide] | < 10 µM
C[C@@H]1CCc2ncnc(N3CCN(C(=O)C(CN)Cc4ccc(Cl)c(F)c4)CC3)c21 (stereo partly drawn) [Example 12, (R,S)-3-amino-2-(4-chloro-3-fluorobenzyl)-1-(4-((R)-5-methyl-6,7-dihydro-5H-cyclopenta[d]pyrimidin-4-yl)piperazin-1-yl)propan-1-one dihydrochloride] | < 10 µM
CC(C)NC[C@@H](C(=O)N1CCN(c2ncnc3c2[C@H](C)C[C@@H]3F)CC1)c1ccc(Cl)c(Cl)c1 [Example 127, (S)-2-(3,4-dichlorophenyl)-1-(4-((5R,7S)-7-fluoro-5-methyl-6,7-dihydro-5H-cyclopenta[d]pyrimidin-4-yl)piperazin-1-yl)-3-(isopropylamino)propan-1-one] | < 10 µM
C[C@@H]1C[C@H](F)c2ncnc(N3CCN(C(=O)[C@@H](CN4CCC(O)CC4)c4ccc(Cl)c(Cl)c4)CC3)c21 [Example 138, (R)-2-(3,4-dichlorophenyl)-1-(4-((5R,7S)-7-fluoro-5-methyl-6,7-dihydro-5H-cyclopenta[d]pyrimidin-4-yl)piperazin-1-yl)-3-(4-hydroxypiperidin-1-yl)propan-1-one] | < 10 µM
C[C@@H]1C[C@H](F)c2ncnc(N3CCN(C(=O)[C@H](CN(CC4CC4)CC4CC4)c4ccc(Br)cc4)CC3)c21 [Example 157, (S)-3-(bis(cyclopropylmethyl)amino)-2-(4-bromophenyl)-1-(4-((5R,7S)-7-fluoro-5-methyl-6,7-dihydro-5H-cyclopenta[d]pyrimidin-4-yl)piperazin-1-yl)propan-1-one] | < 10 µM
CCNCC(C(=O)N1CCN(c2ncnc3c2[C@H](C)CC3)CC1)c1ccc(Cl)cc1 (stereo partly drawn) [Example 29, (R,S)-2-(4-chlorophenyl)-3-(ethylamino)-1-(4-((R)-5-methyl-6,7-dihydro-5H-cyclopenta[d]pyrimidin-4-yl)piperazin-1-yl)propan-1-one dihydrochloride] | < 10 µM
C[C@@H]1CCc2ncnc(N3CCN(C(=O)[C@H](N)Cc4ccc(Cl)cc4Cl)CC3)c21 [Example 71, (R)-2-amino-3-(2,4-dichlorophenyl)-1-(4-((R)-5-methyl-6,7-dihydro-5H-cyclopenta[d]pyrimidin-4-yl)piperazin-1-yl)propan-1-one] | < 10 µM
C[C@@H]1C[C@H](F)c2ncnc(N3CCN(C(=O)[C@H](CNCC4CC4)c4ccc(Cl)c(Cl)c4)CC3)c21 [Example 133, (S)-3-(cyclopropylmethylamino)-2-(3,4-dichlorophenyl)-1-(4-((5R,7S)-7-fluoro-5-methyl-6,7-dihydro-5H-cyclopenta[d]pyrimidin-4-yl)piperazin-1-yl)propan-1-one] | < 10 µM
CNCC(C(=O)N1CCN(c2ncnc3c2[C@H](C)CC3)CC1)c1ccc(F)cc1 (stereo partly drawn) [Example 25, (R,S)-2-(4-fluorophenyl)-1-(4-((R)-5-methyl-6,7-dihydro-5H-cyclopenta[d]pyrimidin-4-yl)piperazin-1-yl)-3-(methylamino)propan-1-one dihydrochloride] | < 10 µM
